# From the supplement of paper PMC10849652
# Protein sequences, listed by entry. Tags and fused reporters are not part of them. Lines headed by an entry give the natural chain unless they say otherwise; changes in a name come on top.
# UniProt Q8WY54: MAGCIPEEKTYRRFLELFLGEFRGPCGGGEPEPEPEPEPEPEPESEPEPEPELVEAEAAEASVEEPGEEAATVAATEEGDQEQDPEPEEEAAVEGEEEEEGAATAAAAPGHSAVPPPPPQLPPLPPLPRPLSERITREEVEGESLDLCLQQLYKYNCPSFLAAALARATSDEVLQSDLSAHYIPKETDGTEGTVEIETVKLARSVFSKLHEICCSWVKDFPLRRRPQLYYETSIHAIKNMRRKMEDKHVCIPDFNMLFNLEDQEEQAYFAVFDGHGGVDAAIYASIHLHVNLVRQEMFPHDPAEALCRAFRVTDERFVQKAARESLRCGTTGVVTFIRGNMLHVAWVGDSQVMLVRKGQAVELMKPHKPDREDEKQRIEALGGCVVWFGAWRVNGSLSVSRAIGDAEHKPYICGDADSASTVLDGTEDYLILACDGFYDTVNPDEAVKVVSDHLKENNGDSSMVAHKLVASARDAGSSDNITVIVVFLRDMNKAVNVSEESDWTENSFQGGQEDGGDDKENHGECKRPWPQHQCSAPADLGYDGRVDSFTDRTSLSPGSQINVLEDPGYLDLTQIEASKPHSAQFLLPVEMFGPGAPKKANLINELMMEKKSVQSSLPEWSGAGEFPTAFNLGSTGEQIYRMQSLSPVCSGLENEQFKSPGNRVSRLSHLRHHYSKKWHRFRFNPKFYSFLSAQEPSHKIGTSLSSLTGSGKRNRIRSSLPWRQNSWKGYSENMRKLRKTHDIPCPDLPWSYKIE
# UniProt Q9ULJ8: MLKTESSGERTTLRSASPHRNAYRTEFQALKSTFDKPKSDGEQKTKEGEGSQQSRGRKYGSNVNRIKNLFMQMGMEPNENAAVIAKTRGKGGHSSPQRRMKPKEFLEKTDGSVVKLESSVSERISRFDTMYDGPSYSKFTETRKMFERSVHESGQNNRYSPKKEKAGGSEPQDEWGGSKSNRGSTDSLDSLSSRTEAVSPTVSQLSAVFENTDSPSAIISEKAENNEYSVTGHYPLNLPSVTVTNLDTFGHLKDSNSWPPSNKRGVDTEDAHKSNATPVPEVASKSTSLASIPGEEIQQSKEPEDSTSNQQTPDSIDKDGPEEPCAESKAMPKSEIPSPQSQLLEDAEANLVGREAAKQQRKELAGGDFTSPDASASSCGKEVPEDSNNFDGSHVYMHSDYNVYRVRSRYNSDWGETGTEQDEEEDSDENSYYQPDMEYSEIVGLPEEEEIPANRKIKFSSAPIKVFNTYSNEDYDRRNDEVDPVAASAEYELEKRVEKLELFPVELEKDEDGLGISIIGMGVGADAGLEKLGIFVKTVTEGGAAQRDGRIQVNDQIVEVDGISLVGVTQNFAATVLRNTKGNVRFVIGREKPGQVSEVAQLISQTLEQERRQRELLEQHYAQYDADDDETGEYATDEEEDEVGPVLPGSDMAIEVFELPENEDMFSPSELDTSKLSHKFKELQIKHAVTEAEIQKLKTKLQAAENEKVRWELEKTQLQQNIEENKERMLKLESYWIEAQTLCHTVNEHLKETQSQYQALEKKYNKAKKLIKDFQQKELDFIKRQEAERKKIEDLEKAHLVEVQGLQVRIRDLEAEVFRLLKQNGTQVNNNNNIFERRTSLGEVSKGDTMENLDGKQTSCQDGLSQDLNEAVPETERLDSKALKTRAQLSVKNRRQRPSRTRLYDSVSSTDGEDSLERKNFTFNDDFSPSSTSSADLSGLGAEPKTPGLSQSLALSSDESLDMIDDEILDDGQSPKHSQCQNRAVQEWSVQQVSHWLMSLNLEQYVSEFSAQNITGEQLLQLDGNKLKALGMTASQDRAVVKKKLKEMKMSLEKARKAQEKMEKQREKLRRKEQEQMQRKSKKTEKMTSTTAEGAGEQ
# UniProt P30048: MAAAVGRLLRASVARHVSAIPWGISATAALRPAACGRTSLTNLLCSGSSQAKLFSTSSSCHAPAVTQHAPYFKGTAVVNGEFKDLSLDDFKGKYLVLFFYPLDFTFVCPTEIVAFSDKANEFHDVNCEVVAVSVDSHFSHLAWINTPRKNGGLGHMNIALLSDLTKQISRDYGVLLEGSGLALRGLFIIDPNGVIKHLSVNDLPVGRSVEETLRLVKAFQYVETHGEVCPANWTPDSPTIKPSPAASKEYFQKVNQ
# UniProt P49643: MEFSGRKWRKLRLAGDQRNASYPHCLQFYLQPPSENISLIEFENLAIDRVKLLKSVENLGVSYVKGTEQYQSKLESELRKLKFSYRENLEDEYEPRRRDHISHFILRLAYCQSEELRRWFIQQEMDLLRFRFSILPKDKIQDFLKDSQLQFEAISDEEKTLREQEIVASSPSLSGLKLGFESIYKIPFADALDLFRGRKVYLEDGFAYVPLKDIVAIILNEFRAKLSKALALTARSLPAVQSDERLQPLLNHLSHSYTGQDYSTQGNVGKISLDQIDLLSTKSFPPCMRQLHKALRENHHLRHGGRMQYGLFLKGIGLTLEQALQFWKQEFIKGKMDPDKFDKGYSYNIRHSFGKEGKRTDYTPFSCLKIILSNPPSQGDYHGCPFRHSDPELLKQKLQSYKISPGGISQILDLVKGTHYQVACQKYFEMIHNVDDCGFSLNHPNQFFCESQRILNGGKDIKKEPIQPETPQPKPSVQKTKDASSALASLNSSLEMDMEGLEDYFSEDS
# UniProt P60510: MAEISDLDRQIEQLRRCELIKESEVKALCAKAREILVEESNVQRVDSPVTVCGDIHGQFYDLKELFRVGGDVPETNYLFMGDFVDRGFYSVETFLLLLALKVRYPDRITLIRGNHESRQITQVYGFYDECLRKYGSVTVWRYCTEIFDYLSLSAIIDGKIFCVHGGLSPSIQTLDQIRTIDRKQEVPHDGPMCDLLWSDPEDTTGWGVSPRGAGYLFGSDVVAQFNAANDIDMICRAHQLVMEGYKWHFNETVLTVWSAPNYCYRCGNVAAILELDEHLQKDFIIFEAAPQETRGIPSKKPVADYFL
# UniProt O15355: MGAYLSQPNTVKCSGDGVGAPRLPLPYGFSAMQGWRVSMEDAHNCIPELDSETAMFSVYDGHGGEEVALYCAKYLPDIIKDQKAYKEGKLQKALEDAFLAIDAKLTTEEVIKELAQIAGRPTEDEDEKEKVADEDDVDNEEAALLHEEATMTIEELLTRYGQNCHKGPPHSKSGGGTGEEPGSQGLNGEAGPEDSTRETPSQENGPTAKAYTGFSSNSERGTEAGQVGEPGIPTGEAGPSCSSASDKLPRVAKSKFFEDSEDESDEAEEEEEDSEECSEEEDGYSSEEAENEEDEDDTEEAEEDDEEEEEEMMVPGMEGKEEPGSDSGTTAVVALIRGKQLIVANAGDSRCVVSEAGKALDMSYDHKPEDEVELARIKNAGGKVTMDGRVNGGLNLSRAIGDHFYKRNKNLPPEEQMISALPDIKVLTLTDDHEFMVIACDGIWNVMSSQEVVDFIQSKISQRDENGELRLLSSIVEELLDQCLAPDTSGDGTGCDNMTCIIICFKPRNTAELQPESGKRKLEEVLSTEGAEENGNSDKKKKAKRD
# UniProt O00743: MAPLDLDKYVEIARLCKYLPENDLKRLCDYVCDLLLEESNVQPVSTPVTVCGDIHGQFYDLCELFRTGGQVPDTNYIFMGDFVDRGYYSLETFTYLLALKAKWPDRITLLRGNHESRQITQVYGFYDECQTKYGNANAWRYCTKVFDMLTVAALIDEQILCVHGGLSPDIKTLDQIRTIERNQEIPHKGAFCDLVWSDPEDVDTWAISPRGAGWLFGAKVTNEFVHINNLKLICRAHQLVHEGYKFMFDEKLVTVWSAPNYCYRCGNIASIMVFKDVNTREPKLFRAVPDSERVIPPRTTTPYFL
# UniProt O14974: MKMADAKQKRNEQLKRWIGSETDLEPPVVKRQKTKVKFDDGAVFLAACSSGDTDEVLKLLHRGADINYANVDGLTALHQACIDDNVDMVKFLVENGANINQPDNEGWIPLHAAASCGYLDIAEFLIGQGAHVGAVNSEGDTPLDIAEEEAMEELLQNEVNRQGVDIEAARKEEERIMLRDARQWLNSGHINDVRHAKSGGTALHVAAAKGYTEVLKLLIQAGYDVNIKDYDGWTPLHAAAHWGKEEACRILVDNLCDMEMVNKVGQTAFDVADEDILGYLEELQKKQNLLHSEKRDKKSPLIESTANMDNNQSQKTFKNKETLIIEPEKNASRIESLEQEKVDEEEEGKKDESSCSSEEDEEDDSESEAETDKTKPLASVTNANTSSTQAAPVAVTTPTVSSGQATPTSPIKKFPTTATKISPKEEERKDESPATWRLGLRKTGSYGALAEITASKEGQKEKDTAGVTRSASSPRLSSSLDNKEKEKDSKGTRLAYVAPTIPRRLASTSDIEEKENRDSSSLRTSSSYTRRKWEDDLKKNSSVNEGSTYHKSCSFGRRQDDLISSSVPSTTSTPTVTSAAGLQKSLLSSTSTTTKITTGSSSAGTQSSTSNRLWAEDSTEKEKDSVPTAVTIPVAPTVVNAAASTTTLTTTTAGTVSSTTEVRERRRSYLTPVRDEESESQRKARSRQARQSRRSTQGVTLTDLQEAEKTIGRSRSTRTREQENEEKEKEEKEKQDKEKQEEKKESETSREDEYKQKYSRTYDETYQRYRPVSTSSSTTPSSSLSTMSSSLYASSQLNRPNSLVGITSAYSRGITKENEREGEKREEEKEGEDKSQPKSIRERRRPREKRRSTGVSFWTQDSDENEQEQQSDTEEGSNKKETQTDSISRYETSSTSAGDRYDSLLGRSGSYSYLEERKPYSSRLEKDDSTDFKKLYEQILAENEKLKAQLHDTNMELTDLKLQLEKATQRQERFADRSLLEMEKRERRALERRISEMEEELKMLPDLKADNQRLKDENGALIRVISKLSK
# UniProt P32119: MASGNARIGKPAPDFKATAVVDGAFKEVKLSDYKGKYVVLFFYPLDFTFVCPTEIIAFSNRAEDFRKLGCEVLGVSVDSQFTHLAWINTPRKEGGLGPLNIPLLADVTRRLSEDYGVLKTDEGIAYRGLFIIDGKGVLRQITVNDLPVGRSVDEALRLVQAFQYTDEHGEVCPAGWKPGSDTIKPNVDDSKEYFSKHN
# UniProt Q86UA1: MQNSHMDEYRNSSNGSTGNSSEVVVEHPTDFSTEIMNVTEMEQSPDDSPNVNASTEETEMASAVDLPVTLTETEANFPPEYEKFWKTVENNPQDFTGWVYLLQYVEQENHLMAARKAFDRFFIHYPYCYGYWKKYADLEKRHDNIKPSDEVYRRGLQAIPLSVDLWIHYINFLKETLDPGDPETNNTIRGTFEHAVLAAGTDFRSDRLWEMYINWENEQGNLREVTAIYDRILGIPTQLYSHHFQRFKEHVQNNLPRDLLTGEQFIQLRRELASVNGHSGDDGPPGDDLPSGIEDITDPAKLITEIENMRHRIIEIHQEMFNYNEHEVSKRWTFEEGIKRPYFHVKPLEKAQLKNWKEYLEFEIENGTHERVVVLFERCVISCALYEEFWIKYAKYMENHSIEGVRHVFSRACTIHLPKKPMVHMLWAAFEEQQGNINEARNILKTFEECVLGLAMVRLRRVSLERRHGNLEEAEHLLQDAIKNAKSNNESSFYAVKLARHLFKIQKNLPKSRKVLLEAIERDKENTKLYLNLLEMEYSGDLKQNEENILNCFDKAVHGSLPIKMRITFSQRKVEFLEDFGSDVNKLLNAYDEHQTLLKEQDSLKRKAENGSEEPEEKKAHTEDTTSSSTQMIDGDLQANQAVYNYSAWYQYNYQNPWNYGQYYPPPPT
# UniProt Q9UPN7: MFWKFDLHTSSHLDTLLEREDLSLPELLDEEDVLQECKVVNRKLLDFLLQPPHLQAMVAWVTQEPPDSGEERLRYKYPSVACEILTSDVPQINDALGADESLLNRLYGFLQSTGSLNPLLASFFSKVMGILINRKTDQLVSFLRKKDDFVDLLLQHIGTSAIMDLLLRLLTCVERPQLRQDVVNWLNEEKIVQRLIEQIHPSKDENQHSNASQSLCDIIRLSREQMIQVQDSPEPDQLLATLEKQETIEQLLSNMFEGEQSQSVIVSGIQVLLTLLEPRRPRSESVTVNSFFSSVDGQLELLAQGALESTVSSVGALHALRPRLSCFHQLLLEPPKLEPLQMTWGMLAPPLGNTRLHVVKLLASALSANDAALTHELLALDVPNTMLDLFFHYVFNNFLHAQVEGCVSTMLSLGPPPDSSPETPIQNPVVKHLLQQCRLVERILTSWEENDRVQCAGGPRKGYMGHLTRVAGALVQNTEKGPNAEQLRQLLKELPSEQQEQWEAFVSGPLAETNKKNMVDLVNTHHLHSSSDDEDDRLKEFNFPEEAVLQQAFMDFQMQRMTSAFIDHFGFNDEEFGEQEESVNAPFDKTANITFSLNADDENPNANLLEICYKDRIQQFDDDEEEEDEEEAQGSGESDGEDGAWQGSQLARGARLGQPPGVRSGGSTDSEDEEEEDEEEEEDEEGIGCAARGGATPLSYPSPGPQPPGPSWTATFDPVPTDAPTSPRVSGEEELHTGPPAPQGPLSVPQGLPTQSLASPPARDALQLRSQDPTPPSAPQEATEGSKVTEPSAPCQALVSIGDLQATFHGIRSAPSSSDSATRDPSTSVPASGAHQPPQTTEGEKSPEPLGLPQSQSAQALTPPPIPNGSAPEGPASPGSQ
# This is one part of the list.
# Columns and labels:
# Assay in all cases: log2 fold change, soluble protein after heating vs DMSO (PISA); higher = thermal stabilisation; K562 lysate, 10 uM; active = over 0.2 and 3.5 SD of the protein, either way, in both replicates (recomputed)
# erlotinib = compound: C#Cc1cccc(Nc2ncnc3cc(OCCOC)c(OCCOC)cc23)c1 [erlotinib]
# Method in brief: (§1)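 A 30 min treatment with 10 μM compound was applied to crude K562 extract at 1 mg/mL protein in PBS pH 7.4 with 1 mM MgCl2. Heating for 3 min spanned 48°C-58°C, after which aliquots were pooled, adjusted to 0.5% NP-40 at 4°C and spun at 21,000xg for 90 min. TMTpro 16plex LC-MS/MS of the supernatant, with channel sums equalised, gave values recorded as log-two fold change in thermal stability against solvent controls, from duplicates.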
# [1] = compound: C/C(=N\NC(=O)C1=CC(=CC=C1)S(=O)(=O)N2CCOCC2)/C3=C(C=CC(=C3)Cl)O
# Method in brief: as §1
# [2] = compound: C1=CC(=CC=C1C2=NC3=C(N2)C=C(C=C3)C(=O)N)OC4=CC=C(C=C4)Cl
# Method in brief: as §1
# [3] = compound: C1=CC2=C(C=CC(=C2)/C=C\3/C(=O)NC(=NCC4=CC=CS4)S3)N=C1
# Method in brief: as §1
# [4] = compound: C1=CC2=NC=CN=C2C=C1/C=C/3\C(=O)NC(=O)S3
# Method in brief: as §1
# [5] = compound: C1=CC=C(C=C1)C2=NC(=C(N2)C3=CC=NC=C3)C4=CC(=C(C=C4)Cl)O
# Method in brief: as §1
# [6] = compound: C1=CC=C2C(=C1)C3=NNC4=CC=CC(=C43)C2=O
# Method in brief: as §1
# [7] = compound: C1CCN(C1)C(=O)NC2=CC=CC(=C2)NC3=NC=C(C(=N3)NCCC4=CN=CN4)Br
# Method in brief: as §1
# [8] = compound: C1CN(CCC1(CC2=CC=C(C=C2)Cl)N)C3=NC=NC4=C3C=CN4
# Method in brief: as §1
# IRAK-1-4 Inhibitor I = compound: C1COCCN1CCN2C3=CC=CC=C3N=C2NC(=O)C4=CC(=CC=C4)[N+](=O)[O-] [IRAK-1-4 Inhibitor I]
# Method in brief: as §1
# ibrutinib = compound: C=CC(=O)N1CCC[C@@H](n2nc(-c3ccc(Oc4ccccc4)cc3)c3c(N)ncnc32)C1 [ibrutinib]
# Method in brief: as §1
# [9] = compound: CC(=O)c1cnc2ccc(-c3cc(Cl)c(O)c(Cl)c3)nc2c1N[C@H]1CC[C@H](CN(C)C)CC1
# Method in brief: as §1
# ralimetinib = compound: CC(C)(C)Cn1c(N)nc2ccc(-c3[nH]c(C(C)(C)C)nc3-c3ccc(F)cc3)nc21 [ralimetinib]
# Method in brief: as §1
# [10] = compound: CC(C)(O)CC(=O)NCCn1ccc2ncnc(Nc3ccc(Oc4cccc(C(F)(F)F)c4)c(Cl)c3)c21
# Method in brief: as §1
# [11] = compound: CC(C)C1=C2N=C(C=C(N2N=C1)NCC3=CC=CC=C3)NCCCCCCN
# Method in brief: as §1
# [12] = compound: CC1=C(C(CC(=O)N1)C2=CC=C(C=C2)C(F)(F)F)C(=O)NC3=C(C=C4C(=C3)C=NN4)F
# Method in brief: as §1
# [13] = compound: CC1=C(C2=C(C=C1)C(=O)C3=CC=CC=C3N2CCCN)C
# Method in brief: as §1
# [14] = compound: CC1=C(C=C(C=C1)NC(=O)C2=CC(=CC=C2)C(C)(C)C#N)NC3=CC4=C(C=C3)N=CN(C4=O)C
# Method in brief: as §1
# [15] = compound: CC1=C(C=C(C=C1)NC(=O)C2=CC(=CC=C2)N(C)C)NC(=O)C3=CC=C(C=C3)O
# Method in brief: as §1
# [16] = compound: CC1=CC=C(C=C1)SC2=C3C=C(SC3=CN=C2)C(=O)N
# Method in brief: as §1
Target,log2 fold change (erlotinib),log2 fold change [1],log2 fold change [2],log2 fold change [3],log2 fold change [4],log2 fold change [5],log2 fold change [6],log2 fold change [7],log2 fold change [8],log2 fold change (IRAK-1-4 Inhibitor I),log2 fold change (ibrutinib),log2 fold change [9],log2 fold change (ralimetinib),log2 fold change [10],log2 fold change [11],log2 fold change [12],log2 fold change [13],log2 fold change [14],log2 fold change [15],log2 fold change [16]
PPM1E (UniProt Q8WY54),inactive: -0.023,inactive: -0.051,inactive: -0.081,inactive: 0.018,inactive: -0.071,inactive: -0.018,inactive: 0.034,inactive: 0.023,inactive: 0.002,inactive: 0.037,inactive: -0.038,inactive: 0.072,inactive: 0.041,inactive: -0.02,inactive: -0.011,inactive: 0.007,inactive: -0.009,inactive: -0.038,inactive: -0.002,inactive: 0.037
PPP3R1 (UniProt P63098),inactive: -0.022,inactive: 0.042,inactive: 0,inactive: 0.06,inactive: -0.024,inactive: 0.014,inactive: 0.069,inactive: -0.031,inactive: 0.028,inactive: -0.01,inactive: 0.093,inactive: -0.027,inactive: 0.024,inactive: 0.015,inactive: 0.013,inactive: -0.068,inactive: 0.026,inactive: 0.035,inactive: 0.023,inactive: -0.031
PPP1R9A isoform 3 (UniProt Q9ULJ8),inactive: 0.009,inactive: -0.152,inactive: -0.002,inactive: 0.017,inactive: -0.046,inactive: -0.078,inactive: -0.136,inactive: -0.062,inactive: 0.105,inactive: 0.048,inactive: 0.04,inactive: -0.053,inactive: -0.065,inactive: -0.011,inactive: -0.058,inactive: -0.02,inactive: -0.066,inactive: 0.022,inactive: -0.043,inactive: -0.004
PPP1R10 (UniProt Q96QC0),inactive: -0.021,inactive: 0.01,inactive: 0.054,inactive: 0,inactive: -0.006,inactive: 0.011,inactive: 0.002,inactive: 0.022,inactive: 0.027,inactive: 0.01,inactive: 0.012,inactive: 0.031,inactive: 0.02,inactive: -0.032,inactive: 0.018,inactive: 0.044,inactive: -0.009,inactive: 0.021,inactive: 0.001,inactive: 0.029
PRDX3 (UniProt P30048),inactive: -0.008,inactive: -0.054,inactive: 0.034,inactive: 0.012,inactive: -0.052,inactive: 0.014,inactive: 0.007,inactive: 0.014,inactive: 0.011,inactive: 0.018,inactive: -0.02,inactive: -0.004,inactive: -0.013,inactive: -0.015,inactive: 0.013,inactive: -0.036,inactive: -0.016,inactive: 0.054,inactive: 0.02,inactive: -0.033
PRKACB isoform 2 (UniProt P22694),inactive: -0.033,inactive: -0.03,inactive: -0.03,inactive: 0.04,inactive: -0.028,inactive: -0.019,inactive: 0.129,active: 0.352,active: 0.354,inactive: 0.009,inactive: -0.006,active: 0.693,inactive: 0.033,inactive: -0.03,inactive: -0.013,inactive: 0.025,inactive: -0.014,inactive: -0.037,inactive: 0.014,inactive: -0.024
PRIM2 (UniProt P49643),inactive: 0.05,inactive: -0.12,inactive: 0.032,inactive: 0.007,inactive: -0.006,inactive: 0.011,inactive: 0.005,inactive: -0.016,inactive: 0.017,inactive: 0.027,inactive: 0.067,inactive: -0.05,inactive: 0.041,inactive: -0.025,inactive: -0.001,inactive: 0.015,inactive: -0.043,inactive: 0.028,inactive: 0.054,inactive: 0.009
PPP4C (UniProt P60510),inactive: -0.008,inactive: 0.033,inactive: 0.023,inactive: -0.023,inactive: -0.087,inactive: 0.031,inactive: -0.009,inactive: -0.028,inactive: -0.01,inactive: 0.013,inactive: 0.062,inactive: -0.01,inactive: 0.018,inactive: -0.044,inactive: -0.008,inactive: -0.032,inactive: -0.038,inactive: 0.016,inactive: 0.02,inactive: -0.031
PPM1G (UniProt O15355),inactive: -0.012,inactive: -0.011,inactive: 0.017,inactive: 0.02,inactive: 0,inactive: 0.003,inactive: 0.036,inactive: 0.013,inactive: -0.013,inactive: -0.016,inactive: -0.006,inactive: 0.017,inactive: 0.009,inactive: 0.024,inactive: -0.018,inactive: -0.007,inactive: 0,inactive: -0.018,inactive: 0,inactive: -0.007
PPP6C isoform 3 (UniProt O00743),inactive: -0.011,inactive: -0.001,inactive: 0.002,inactive: 0.005,inactive: -0.002,inactive: 0.003,inactive: 0.026,inactive: 0.016,inactive: 0.02,inactive: 0.011,inactive: 0.015,inactive: 0.031,inactive: 0.04,inactive: 0.018,inactive: 0.009,inactive: -0.044,inactive: 0.044,inactive: 0.006,inactive: 0.007,inactive: -0.005
PPP1R12A (UniProt O14974),inactive: -0.015,inactive: -0.093,inactive: 0.011,inactive: 0.002,inactive: -0.002,inactive: -0.006,inactive: -0.024,inactive: -0.001,inactive: -0.014,inactive: 0.016,inactive: -0.016,inactive: 0.013,inactive: 0.032,inactive: -0.021,inactive: 0.006,inactive: 0.008,inactive: -0.01,inactive: 0.005,inactive: 0.015,inactive: -0.01
PRDX2 (UniProt P32119),inactive: -0.026,inactive: 0.019,inactive: -0.003,inactive: -0.05,inactive: 0.006,inactive: 0.014,inactive: 0.012,inactive: 0.03,inactive: -0.003,inactive: -0.155,inactive: 0.013,inactive: 0.018,inactive: -0.073,inactive: 0.002,inactive: -0.007,inactive: -0.016,inactive: -0.026,inactive: 0.004,inactive: 0.007,inactive: -0.015
PRPF39 (UniProt Q86UA1),inactive: 0.011,inactive: 0.015,inactive: -0.082,inactive: -0.03,inactive: -0.001,inactive: -0.032,inactive: 0.007,inactive: -0.044,inactive: -0.03,inactive: 0.027,inactive: -0.001,inactive: 0.013,inactive: 0.006,inactive: -0.004,inactive: -0.007,inactive: 0,inactive: -0.053,inactive: 0.009,inactive: 0.023,inactive: 0.034
PPP6R1 (UniProt Q9UPN7),inactive: 0.086,inactive: -0.001,inactive: -0.016,inactive: 0.011,inactive: 0.053,inactive: -0.016,inactive: 0.009,inactive: 0,inactive: 0.029,inactive: 0.031,inactive: 0.018,inactive: 0.008,inactive: 0.029,inactive: -0.023,inactive: -0.02,inactive: -0.005,inactive: -0.022,inactive: 0.067,inactive: 0.021,inactive: 0.016
PRC1 (UniProt O43663),inactive: 0.026,inactive: 0.027,inactive: 0.013,inactive: -0.026,inactive: -0.004,inactive: 0.059,inactive: -0.054,inactive: -0.011,inactive: 0.126,inactive: 0.008,inactive: -0.007,inactive: 0.009,inactive: -0.016,inactive: 0.01,inactive: 0.01,inactive: 0.039,inactive: -0.006,inactive: 0.025,inactive: 0.021,inactive: 0.059
PRMT7 (UniProt Q9NVM4),inactive: -0.042,inactive: 0.004,inactive: 0.024,inactive: 0.038,inactive: 0.008,inactive: -0.023,inactive: -0.083,inactive: -0.033,inactive: -0.031,inactive: -0.008,inactive: 0.043,inactive: -0.016,inactive: 0.042,inactive: -0.01,inactive: 0.017,inactive: 0,inactive: -0.008,inactive: 0.013,inactive: 0.031,inactive: 0.008
